Reference: US10079346B2, “Heteroaromatic compounds for organic electronics” (BASF SE, priority 2014, dated 2018)
Some compounds share one wording; it may come from a single statement.

Test: Bottom-gate top-contact field-effect transistors, semiconductor thermally evaporated in high vacuum (Example 14)
Conditions: for transistor characteristics (type): OFET of example 14; for μ (charge-carrier mobility): OFET of example 14, saturation regime, thermally evaporated; for μ (charge-carrier mobility) / Vth (threshold voltage) / Ion/off: ambient air; for Vth (threshold voltage) / Ion/off: OFET of example 14, thermally evaporated; for Vth (threshold voltage): Al2O3 dielectric

CC(C)(C)OC(=O)n1c2c(c3c1=Nc1ccccc1S3)Sc1ccccc1N=2 [Compound 1a]
transistor characteristics (type): typical p-type characteristics
μ (charge-carrier mobility): 0.13 cm^2/Vs
Vth (threshold voltage): −6.9 V
Ion/off: 1E4

CCCCCCCCCCCCCCc1ccc2c(c1)N=c1c(c3c(n1C(=O)OC(C)(C)C)=Nc1cc(CCCCCCCCCCCCCC)ccc1S3)S2 [Compound 1e]
transistor characteristics (type): typical p-type characteristics
μ (charge-carrier mobility): 0.23 cm^2/Vs
Vth (threshold voltage): −3.9 V
Ion/off: 2E6

CCCCCC1CCC(c2ccc3c(c2)N=c2c(c4c(n2C(=O)OC(C)(C)C)=Nc2cc(C5CCC(CCCCC)CC5)ccc2S4)S3)CC1 (stereo not drawn) [Compound 1g]
transistor characteristics (type): typical p-type characteristics
μ (charge-carrier mobility): 0.008 cm^2/Vs
Vth (threshold voltage): −6.5 V
Ion/off: 4E4
